The results in this text go back to paper PMC9974466 (Proceedings of the National Academy of Sciences of the …, 2023).

The series relates to intact PTH assay antibodies: capture anti-PTH(39-84), detection anti-PTH(13-34). As to the kind of experiment: PTH concentration in CM/fractions/plasma by intact PTH assay (Immutopics ELISA). The conditions noted are these: for Dilution parallelism in intact PTH assay: serial dilutions vs PTH(1-84) standard curve. A general note: ELISA stands for enzyme-linked immunosorbent assay.

Turning to “SVSEIQ … LMHNLGKHLNSMERVEWLRKKLQDVHNFVALGAPLAPRDAGSQRPRKKEDNVLVESHEKSLGEADKADVNVLTKAKSQ [PTH(1-84), Recombinant PTH(1-84) was from Chugai Pharmaceutical Co., Ltd]”, the “Dilution parallelism in intact PTH assay” value is given as “run in parallel”.

B1: pro[P1]PTH: mutant pro-hormone secreted by COS-7 cells expressing prepro[P1]PTH(1-84) and present in patients' plasma (protein, UniProt P01270 26-115, looked up, variant S1P)
pro-form: KSVKKRPVSEIQLMHNLGKHLNSMERVEWLRKKLQDVHNFVALGAPLAPRDAGSQRPRKKEDNVLVESHEKSLGEADKADVNVLTKAKSQ
modifications: pro-form
notes: mutant pro-hormone secreted by COS-7 cells expressing prepro[P1]PTH(1-84) and present in patients' plasma
Consider B1, for which the “Dilution parallelism in intact PTH assay” value is given as “run in parallel”. Besides, the “Concentration of pro[P1]PTH in undiluted CM” value (COS-7 cells transfected in T175 flask with prepro[P1]PTH(1-84) plasmid, intact PTH assay, used as standard) is 4,825 pg/mL.
